# Laboratory results taken from PubChem BioAssay AID2685 (National Center for Advancing Translational Sciences (NCATS), 2010).
# Out of some 320,000 compounds screened, about 2,100 (0.66%) were called active. Inconclusive means that the source gave no clear call. Such entries were picked first, then a sample of the others. The call rests on the fitted dose curve; in most records, active means well fitted inhibition curve with a large enough effect in the signal ratio, with a control signal flat (not every such curve was filed as active); inconclusive means small, poorly fitted or top-dose-only effect, or effect the other way, or a change in a side signal; inactive means flat fitted curve, though single readings scatter; the % refers to the signal ratio. Potencies beside an inconclusive call are fits to weak or partial responses and may not hold up.
# Assay: qHTS Assay for Lipid Storage Modulators in Drosophila S3 Cells
# Settings: BODIPY lipid droplet fluorescence, 18-24 h, cells fed with added oleic acid; lipid storage change, negative = inhibition: at 46.1 µM (top of the series) unless noted
# Summary of the method: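 Drosophila S3 cells loaded with oleic acid (400 uM, as added) and compounds at several concentrations; lipid droplets imaged by 488-nm laser-scanning cytometry, 500–530 nm intensity and object ratio to cell channel. Percent activity normalized to 20 uM Triacsin C.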
# On the % scale 0 is the no-effect control and ±100 the full control effect; potency means the concentration at half of the fitted maximal effect.
SMILES,Potency,"lipid storage change, negative = inhibition"
CC1(c2ccc3noc(-c4cccc(F)c4)c3c2)OCCO1,"inconclusive: 4.61 µM [activator, single point]",–
CC(C)=N/N=C1/NC(=O)C(Cc2ccccc2)S1 (stereo not given),–,inconclusive: 7.99%
COC(=O)CC1C(C(=O)OC)ON2OC(C(=O)OC)C(C(=O)OC)C12 (stereo not given),–,inconclusive: 0.0663%
O=C(CSC1=NS(=O)(=O)c2cc(Cl)ccc2N1)NCCc1ccccc1,–,inconclusive: 34.9% [at 0.0737 µM]
CCN(c1ccc(NC(=O)CSCc2c(C)noc2C)cc1)C(C)C,–,inconclusive: 18.9%
CC1CN(C(=O)c2cccc(COc3ccccc3Cl)c2)CC(C)O1 (stereo not given),–,inconclusive: -1.37% [at 9.22 µM]
CCCc1cc(=O)oc2cc(OCC(=O)Nc3ccc4c(c3)OCCO4)ccc12,"inconclusive: 0.58 µM [activator, single point]",–
CC(C)C(NS(=O)(=O)c1ccc2c(c1)OCCCO2)C(=O)O (stereo not given),–,inconclusive: 40.7% [activator]
CCOC(=O)C(CC)n1cnc2c(nnn2-c2ccc(OC)cc2)c1=O (stereo not given),–,inconclusive: 14.7%
N#CCCN(C(=O)Nc1ccccc1)c1ccccc1,"inconclusive: 32.6 µM [falling, single point]",–
Cc1ccc(C2CC(=O)Oc3cc(O)ccc32)cc1 (stereo not given),–,inconclusive: 9.67%
C[C@@H]1Cc2c(O)c(O)cc(O)c2C(=O)O1,"inconclusive: 0.116 µM [activator, partial curve, poor fit]",–
COC(C)(C)[C@H](O)COc1c2ccoc2cc2oc(=O)ccc12,–,inconclusive: 20.5%
C=C(c1ccccc1C)[n+]1ccccc1,–,inconclusive: -26.1%
Cc1ccc(S(=O)(=O)Cc2c(C)noc2C)cc1,–,inconclusive: -11.2%
CCS(=O)(=O)n1nc(-c2ccc(OC)cc2)nc1SC,"inconclusive: 2.59 µM [activator, single point]",–
O=C(/C(=C/c1ccncc1)n1ccnc1)c1ccc(Cl)cc1Cl,–,inconclusive: -21.8%
COc1ccc(Cl)cc1NC(=O)COC(=O)c1c(-c2ccccc2)noc1C,–,inactive
O=C(NN=C1CCCCC1)NC1CCCCC1,–,inconclusive: 9.33%
COc1ccc(C(=O)Nc2cccc3c2C(=O)NC3=O)cc1S(=O)(=O)N1CCOCC1,–,inconclusive: -30%
COc1ccc(Cl)cc1NC(=O)CSc1nnc(-c2ccncc2)n1CC1CCCO1 (stereo not given),"inconclusive: 0.92 µM [activator, full curve]",–
CCOc1cc(/C=N/N2C(=O)NC3(CCCCC3)C2=O)cc(Br)c1O,–,inconclusive: -11.2%
CC(=O)Nc1ccc(NC(=O)CSc2nnc(CC(C)O)n2-c2ccccc2)cc1 (stereo not given),–,inconclusive: -16.6%
CCn1cnc2sc(C(=O)N3CCN(c4ccc(OC)cc4)CC3)c(C)c2c1=O,"inconclusive: 1.84 µM [activator, partial curve, poor fit]",–
COc1cc(/C=C/C(=O)c2ccc(NS(=O)(=O)c3ccc(C)cc3)cc2)cc(OC)c1O,–,inactive

SMILES,Potency,"lipid storage change, negative = inhibition"
CCOc1ccc(/C=C/C(O)=C2/C(=O)NC3(C)CC2c2ccccc2O3)cc1OC (stereo not given),"inconclusive: 29.1 µM [cytotoxic, single point]",–
Cc1[nH]nc2c1C(c1cnn(C)c1)C(C#N)=C(N)O2 (stereo not given),–,inconclusive: -24.5%
COC(=O)CCCNc1ncccc1[N+](=O)[O-],–,inconclusive: 30.8%
COc1ccc2nc(NC(=O)CSc3nc(SC)ns3)sc2c1,"inconclusive: 18.4 µM [falling, single point]",–
O=C(Nc1cc(S(=O)(=O)N2CCCCC2)ccc1N1CCOCC1)c1ccc(F)cc1,"inconclusive: 6.51 µM [falling, single point]",–
CC1=C(C)CC(C(=O)NNC(=O)c2csc(C)c2C)C(C(=O)O)C1 (stereo not given),–,inactive
COc1cc2oc3ccccc3c2cc1N(CC(=O)N1CCCCC1)S(=O)(=O)c1ccc(C)cc1,"inconclusive: 0.651 µM [falling, single point]",–
C=CCn1c(=S)[nH]c2scc(-c3ccco3)c2c1=O,–,inactive
COCCN(C(=O)CSCC(=O)Nc1cccc(C)c1)c1c(N)n(Cc2ccccc2)c(=O)[nH]c1=O,–,inconclusive: 20.4%
Cc1cc(C)n(C(=O)c2ccc([N+](=O)[O-])c(Cl)c2)n1,"inconclusive: 29.1 µM [falling, single point]",–
CCCN1C2CCCC1CC(NC(=O)NC13CC4CC(CC(C4)C1)C3)C2 (stereo not given),–,inconclusive: -41.5%
Cc1ccccc1NC(=O)N1CCCN(c2ccc(C#N)cn2)CC1,–,inconclusive: 7.12%
CCC(C)NC(=O)C(=O)NCc1ccccn1 (stereo not given),–,inactive
C=CCn1c(SCC(=O)c2c(N)n(C3CC3)c(=O)[nH]c2=O)nnc1-c1ccc(OC)cc1,–,inconclusive
Cc1ccc(CNC(=O)c2ccc(COc3ccccc3)cc2)cc1,–,inconclusive: 4.98%
CC(NC(=O)CCOc1ccccc1)c1ccccc1 (stereo not given),"inconclusive: 29.1 µM [falling, single point]",–
COc1ccccc1-c1nnc(SCC(=O)c2c(N)n(C3CC3)c(=O)[nH]c2=O)o1,"inconclusive: 8.2 µM [activator, partial curve]",–
COC(=O)CNC(c1ccccc1)c1cc(Br)ccc1NC(C)=O (stereo not given),–,inactive
CCOC(=O)CSc1ncnc2c1cnn2-c1ccc(C)cc1C,–,inconclusive: 7.14%
Cc1nc2c(cnn2-c2ccccc2Cl)c(=O)n1-c1ccc(C(C)C)cc1,"inconclusive: 29.1 µM [rising, single point]",–
CCOC(=O)c1ccc(NC(=O)CSc2nccn2C)cc1,"inconclusive: 4.61 µM [activator, full curve]",–
O=C(Nc1ccc(Cl)c(Cl)c1)c1ccc2c(c1)OCO2,"inconclusive: 3.66 µM [falling, partial curve]",–
O=C(Cc1ccc(Br)cc1)N1CCN(c2ccccn2)CC1,–,inconclusive: 15.8%
O=C(Nc1nnc(SCc2c(Cl)cccc2Cl)s1)C1CC(=O)N(c2ccc3c(c2)OCCO3)C1 (stereo not given),–,inconclusive: 52%
CCN(CC)S(=O)(=O)c1ccc(Cl)c(C(=O)Oc2cccnc2)c1,–,inconclusive: 6.6%

# Reprinted at random: three entries already listed
SMILES,Potency,"lipid storage change, negative = inhibition"
CC(C)C(NS(=O)(=O)c1ccc2c(c1)OCCCO2)C(=O)O (stereo not given),–,inconclusive: 40.7% [activator]
C=CCn1c(=S)[nH]c2scc(-c3ccco3)c2c1=O,–,inactive
C=C(c1ccccc1C)[n+]1ccccc1,–,inconclusive: -26.1%
